PubChem BioAssay AID504793 | Drosophila RNAi Screening Center, 2011
Aim: 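Whole-genome screen for parts of the DNA damage checkpoint at G2/M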 (primary screen). Cell system: Drosophila S2R+ cells. Reagent: long dsRNA against Drosophila genes, about 0.25 µg dsRNA per well. Time to read-out: 4 days of dsRNA, then 4 hours of drug before read-out. Treatment: doxorubicin 0.5 µM for 4 hours to cause double-strand breaks, in cells also given a low, harmless dose of dsRNA against nbs to sensitise the assay. Measured: 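Mitotic index as the number of phospho-histone H3-positive cells in each well following doxorubicin, given as raw counts without normalisation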. Reading the numbers: mitotic cells: higher = more cells in mitosis, weaker G2 arrest. Rule for the call: 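Genes are called active only when high mitotic counts were reproduced with independent dsRNAs and mitosis was checked for delay without damage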. Calls: active = confirmed in follow-up tests; inactive = not confirmed.
The screen tested about 23,000 reagents; this is a random part of those with a known target gene and a result. In the full data, 62 (0.27%) were called active. 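Calls come from follow-up tests whose scores are not deposited, so confirmed genes may have low counts here; counts are not normalised per plate.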 Raw values vary from plate to plate and are shown uncorrected. Names joined by + are all predicted targets of the reagent. Reagent sequences are not shown.

| predicted target | dsRNA | mitotic cells, replicate 1 | mitotic cells, replicate 2 | Call |
| --- | --- | --- | --- | --- |
| Cap-D3 | DRSC02349 | 4 | – | inactive |
| Cap-D3 | DRSC27018 | 4 | – | inactive |
| Acyp | DRSC01861 | 5 | – | inactive |
| BORCS7 + CG13430 | DRSC06392 | 6 | – | inactive |
| BORCS7 + CG13430 | DRSC06707 | 8 | – | inactive |
| Obp50d | DRSC05483 | 6 | – | inactive |
| CG8746 | DRSC07257 | 3 | – | inactive |
| Cyp6a8 | DRSC07384 | 14 | – | inactive |
| CG16972 | DRSC02550 | 2 | – | inactive |
| CG42585 + CG31835 | DRSC28807 | 5 | – | inactive |
| Decay | DRSC16930 | 4 | – | inactive |
| CG8520 | DRSC07206 | 4 | – | inactive |
| Cam | DRSC07353 | 7 | – | inactive |
| Cam | DRSC07354 | 19 | – | inactive |
| Nepl7 | DRSC02495 | 9 | – | inactive |
| Nepl7 | DRSC27685 | 5 | – | inactive |
| CG5003 | DRSC15694 | 6 | – | inactive |
| CG5003 | DRSC26689 | 4 | – | inactive |
| CG43078 | DRSC10292 | 7 | – | inactive |
| CG43078 | DRSC10608 | 11 | – | inactive |
| CG43078 | DRSC21541 | 8 | – | inactive |
| CG43078 | DRSC22327 | 10 | – | inactive |
| CG43078 | DRSC27481 | 3 | – | inactive |
| CG18304 | DRSC02664 | 3 | – | inactive |
| CG18304 | DRSC28389 | 2 | – | inactive |
| CG16890 | DRSC01890 | 7 | – | inactive |
| CG16890 | DRSC29892 | 7 | – | inactive |
| RpS5b | DRSC16173 | 6 | – | inactive |
| dlp | DRSC10472 | 6 | – | inactive |
| dlp | DRSC23803 | 6 | – | inactive |
| ytr | DRSC04306 | 7 | – | inactive |
| ytr | DRSC22073 | 6 | – | inactive |
| ytr | DRSC25408 | 6 | – | inactive |
| Tfb5 + CG31917 | DRSC28677 | 9 | – | inactive |
| CG9308 | DRSC04539 | 7 | – | inactive |
| CG9308 | DRSC28962 | 6 | – | inactive |
| CG14043 | DRSC02368 | 7 | – | inactive |
| CG14043 | DRSC29925 | 11 | – | inactive |
| CG1774 | DRSC15258 | 6 | – | inactive |
| CG12662 | DRSC17865 | 15 | – | inactive |
| wkd | DRSC15777 | 6 | – | inactive |
| CG17826 | DRSC10289 | 4 | – | inactive |
| CG17826 | DRSC28654 | 3 | – | inactive |
| CG10185 | DRSC14205 | 8 | – | inactive |
| CG3081 | DRSC18571 | 12 | – | inactive |
| CG34330 | DRSC20043 | 39 | – | inactive |
| CG34330 | DRSC29637 | 14 | – | inactive |
| CG3335 | DRSC10358 | 6 | – | inactive |
| CG3335 | DRSC29982 | 6 | – | inactive |
| CG6026 | DRSC15950 | 12 | – | inactive |
| CG4390 | DRSC15572 | 10 | – | inactive |
| CG4390 | DRSC26410 | 6 | – | inactive |
| Uhg3 | DRSC22963 | 5 | 9 | inactive |
| Liprin-alpha | DRSC02132 | 8 | – | inactive |
| Liprin-alpha | DRSC26919 | 3 | – | inactive |
| CG12935 + Nop10 | DRSC07025 | 7 | – | inactive |
| CG8043 | DRSC16368 | 3 | – | inactive |
| CG14756 | DRSC06491 | 6 | – | inactive |
| CG14756 | DRSC24808 | 4 | – | inactive |
| CG11294 | DRSC17777 | 11 | – | inactive |
| CG11294 | DRSC25060 | 2 | – | inactive |
| CG30378 | DRSC05071 | 5 | – | inactive |
| Prp4k | DRSC08144 | 5 | – | inactive |
| Prp4k | DRSC27510 | 2 | – | inactive |
| Uba2 | DRSC11311 | 2 | – | inactive |
| CG2656 | DRSC12584 | 10 | – | inactive |
| CG4962 | DRSC10464 | 8 | – | inactive |
| Iswi | DRSC07446 | 9 | – | inactive |
| Iswi | DRSC26047 | 11 | – | inactive |
| TrissinR | DRSC02334 | 6 | – | inactive |
| TrissinR | DRSC02335 | 9 | – | inactive |
| TrissinR | DRSC02336 | 1 | – | inactive |
| TrissinR | DRSC25084 | 4 | – | inactive |
| TrissinR | DRSC26283 | 5 | – | inactive |
| Vps16B | DRSC15304 | 17 | – | inactive |
| Lac | DRSC07452 | 6 | – | inactive |
| cl | DRSC02118 | 5 | – | inactive |
| CG42450 | DRSC20022 | 7 | – | inactive |
| CG42450 | DRSC22751 | 6 | – | inactive |
| CalpA | DRSC07352 | 10 | – | inactive |
| Acbp5 | DRSC10548 | 9 | – | inactive |
| CG32305 | DRSC08614 | 3 | – | inactive |
| CG32305 | DRSC29854 | 10 | – | inactive |
| CG9485 | DRSC04557 | 7 | – | inactive |
| CG3038 | DRSC18618 | 13 | – | inactive |
| cbc | DRSC06957 | 4 | – | inactive |
| 14-3-3epsilon | DRSC16370 | 135 | – | active |
| CG17258 | DRSC00495 | 7 | – | inactive |
| CG17258 | DRSC22709 | 7 | – | inactive |
| CG17258 | DRSC28524 | 2 | – | inactive |
| Pp2B-14D | DRSC20270 | 7 | – | inactive |
| Pp2B-14D | DRSC23315 | 11 | – | inactive |
| AspRS-m | DRSC02646 | 7 | – | inactive |
| CG12025 | DRSC08230 | 7 | – | inactive |
| CG17304 (retired record) | DRSC23250 | 6 | – | inactive |
| CG17304 (retired record) | DRSC28867 | 3 | – | inactive |
| CG14455 | DRSC11712 | 5 | – | inactive |
| CG14455 | DRSC29992 | 14 | – | inactive |
| CG3909 | DRSC14150 | 8 | – | inactive |
| CG9257 | DRSC03173 | 3 | – | inactive |
| Cht6 | DRSC18001 | 9 | – | inactive |
| Cht6 | DRSC18253 | 7 | – | inactive |
| Cht6 | DRSC23211 | 7 | – | inactive |
| Cht6 | DRSC28095 | 4 | – | inactive |
| NT1 | DRSC08530 | 1 | – | inactive |
| NT1 | DRSC22895 | 18 | – | inactive |
| CG18823 | DRSC18168 | 4 | – | inactive |
| SmydA-2 | DRSC10296 | 4 | – | inactive |
| CG10907 | DRSC09804 | 5 | – | inactive |
| Pomp | DRSC03201 | 105 | – | inactive |
| Pomp | DRSC27581 | 6 | – | inactive |

15 entries already listed, ordered by “mitotic cells, replicate 1”, highest first:
| predicted target | dsRNA | mitotic cells, replicate 1 | mitotic cells, replicate 2 | Call |
| --- | --- | --- | --- | --- |
| CG11294 | DRSC17777 | 11 | – | inactive |
| Iswi | DRSC26047 | 11 | – | inactive |
| CG2656 | DRSC12584 | 10 | – | inactive |
| Iswi | DRSC07446 | 9 | – | inactive |
| TrissinR | DRSC02335 | 9 | – | inactive |
| CG4962 | DRSC10464 | 8 | – | inactive |
| TrissinR | DRSC02334 | 6 | – | inactive |
| CG30378 | DRSC05071 | 5 | – | inactive |
| Prp4k | DRSC08144 | 5 | – | inactive |
| TrissinR | DRSC26283 | 5 | – | inactive |
| TrissinR | DRSC25084 | 4 | – | inactive |
| CG11294 | DRSC25060 | 2 | – | inactive |
| Prp4k | DRSC27510 | 2 | – | inactive |
| Uba2 | DRSC11311 | 2 | – | inactive |
| TrissinR | DRSC02336 | 1 | – | inactive |
